The text below walks through data of paper PMC7977445.

Chains of the proteins cited; added tags and fusions are not shown.
UniProt Q15910: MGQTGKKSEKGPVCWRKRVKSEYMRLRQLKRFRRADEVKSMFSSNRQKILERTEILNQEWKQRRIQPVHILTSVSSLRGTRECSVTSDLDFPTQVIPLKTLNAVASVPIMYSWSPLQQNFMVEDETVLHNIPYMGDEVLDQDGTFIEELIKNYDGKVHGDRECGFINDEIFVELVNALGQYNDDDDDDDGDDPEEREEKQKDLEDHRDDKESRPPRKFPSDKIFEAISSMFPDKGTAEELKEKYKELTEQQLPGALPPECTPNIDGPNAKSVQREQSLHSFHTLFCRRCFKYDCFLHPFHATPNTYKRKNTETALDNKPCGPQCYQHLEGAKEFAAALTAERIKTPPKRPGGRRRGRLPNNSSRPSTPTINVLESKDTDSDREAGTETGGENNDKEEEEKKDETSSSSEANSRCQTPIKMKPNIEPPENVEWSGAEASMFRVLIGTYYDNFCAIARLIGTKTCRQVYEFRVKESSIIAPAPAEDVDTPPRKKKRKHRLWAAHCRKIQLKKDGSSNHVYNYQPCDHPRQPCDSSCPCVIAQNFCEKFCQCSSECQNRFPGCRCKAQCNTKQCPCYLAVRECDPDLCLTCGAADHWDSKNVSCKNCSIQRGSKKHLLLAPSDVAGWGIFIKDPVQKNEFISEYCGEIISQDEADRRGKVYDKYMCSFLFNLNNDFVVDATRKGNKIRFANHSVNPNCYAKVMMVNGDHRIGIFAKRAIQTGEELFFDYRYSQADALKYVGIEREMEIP
UniProt P17844: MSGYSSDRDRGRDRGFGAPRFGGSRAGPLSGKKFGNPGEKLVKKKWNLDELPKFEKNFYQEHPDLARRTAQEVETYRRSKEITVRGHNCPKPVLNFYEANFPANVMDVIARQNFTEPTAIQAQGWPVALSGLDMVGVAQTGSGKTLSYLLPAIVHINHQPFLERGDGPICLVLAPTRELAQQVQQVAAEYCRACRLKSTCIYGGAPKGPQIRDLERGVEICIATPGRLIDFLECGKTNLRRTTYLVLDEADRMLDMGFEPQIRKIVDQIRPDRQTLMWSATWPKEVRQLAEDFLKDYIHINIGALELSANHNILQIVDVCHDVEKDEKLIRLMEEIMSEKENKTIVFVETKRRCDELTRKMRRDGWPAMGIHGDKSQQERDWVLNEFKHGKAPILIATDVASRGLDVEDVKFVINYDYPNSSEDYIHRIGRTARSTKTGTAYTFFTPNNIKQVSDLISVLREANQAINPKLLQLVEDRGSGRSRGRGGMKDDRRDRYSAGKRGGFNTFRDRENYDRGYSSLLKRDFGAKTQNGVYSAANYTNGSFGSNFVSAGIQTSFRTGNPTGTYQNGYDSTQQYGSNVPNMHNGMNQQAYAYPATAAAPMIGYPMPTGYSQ
UniProt Q15022: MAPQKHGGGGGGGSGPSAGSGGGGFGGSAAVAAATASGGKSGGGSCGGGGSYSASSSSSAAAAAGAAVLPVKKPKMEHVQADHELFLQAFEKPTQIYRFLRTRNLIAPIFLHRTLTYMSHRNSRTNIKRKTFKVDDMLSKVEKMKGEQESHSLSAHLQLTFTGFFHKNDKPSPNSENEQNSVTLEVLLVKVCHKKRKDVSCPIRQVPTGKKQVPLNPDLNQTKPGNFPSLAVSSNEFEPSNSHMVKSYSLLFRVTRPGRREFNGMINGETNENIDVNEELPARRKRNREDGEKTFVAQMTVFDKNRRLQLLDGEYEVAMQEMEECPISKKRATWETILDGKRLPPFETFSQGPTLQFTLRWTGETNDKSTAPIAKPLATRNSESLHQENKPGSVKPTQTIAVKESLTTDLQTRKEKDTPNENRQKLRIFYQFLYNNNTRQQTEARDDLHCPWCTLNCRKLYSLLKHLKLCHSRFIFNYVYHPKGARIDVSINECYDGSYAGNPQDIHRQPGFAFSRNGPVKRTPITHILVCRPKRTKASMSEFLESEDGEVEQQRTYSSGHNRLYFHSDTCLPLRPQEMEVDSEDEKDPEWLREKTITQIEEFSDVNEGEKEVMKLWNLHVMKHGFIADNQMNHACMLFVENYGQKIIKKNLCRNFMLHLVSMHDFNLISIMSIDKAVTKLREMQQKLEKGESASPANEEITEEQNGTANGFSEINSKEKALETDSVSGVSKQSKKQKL
UniProt O75530: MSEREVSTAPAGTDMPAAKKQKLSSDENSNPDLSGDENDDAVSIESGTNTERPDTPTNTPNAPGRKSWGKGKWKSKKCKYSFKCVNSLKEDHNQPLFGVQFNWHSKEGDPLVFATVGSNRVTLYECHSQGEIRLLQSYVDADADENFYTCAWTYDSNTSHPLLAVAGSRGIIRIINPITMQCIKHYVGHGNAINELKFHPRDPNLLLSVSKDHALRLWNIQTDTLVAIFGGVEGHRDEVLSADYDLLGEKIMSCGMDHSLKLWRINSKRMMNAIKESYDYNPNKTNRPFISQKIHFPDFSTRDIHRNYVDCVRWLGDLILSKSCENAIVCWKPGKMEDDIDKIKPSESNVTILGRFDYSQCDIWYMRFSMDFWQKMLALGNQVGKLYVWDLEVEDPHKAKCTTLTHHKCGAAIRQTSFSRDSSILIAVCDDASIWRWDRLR

No constants are given. Whether binding was seen depends on the method and setting. In cells and extracts the contact can be indirect. Some results given as binding are weak or reduced against the parent protein; the word gives no strength.

Experiment [1] addresses enhancer of zeste homologue 2 (EZH2) (human (endogenous in U87-MG)) (UniProt Q15910). The experiment can be described thus: co-IP; endogenous proteins in U87-MG lysate (Western and IP lysis buffer); 5 ug anti-EZH2, anti-SUZ12 or anti-DDX5 with protein-A/G agarose beads, 4 °C overnight, five washes with PBS; Western blotting; also after DDX5 or SUZ12 knockdown and after PRADX overexpression.

Experiment [2] has the same target. The experiment can be described thus: co-IP; as the co-IP with anti-EZH2 or anti-DDX5 antibody, with RNase treatment before the co-IP; immunoblotting with EZH2 or DDX5 antibodies.
Experiment [3] has as its target DEAD box protein 5 (DDX5) (human (endogenous in U87-MG)) (UniProt P17844). The experiment can be described thus: co-IP; endogenous proteins in U87-MG lysate (Western and IP lysis buffer); 5 ug anti-EZH2, anti-SUZ12 or anti-DDX5 with protein-A/G agarose beads, 4 °C overnight, five washes with PBS; Western blotting; also after DDX5 or SUZ12 knockdown and after PRADX overexpression.

For “DEAD box protein 5 (DDX5) (from UniProt P17844 1-614)”, the binding entry in experiment [1] and in experiment [2] was “binds” throughout.

On to “suppressor of zeste 12 homolog (SUZ12) (from UniProt Q15022 1-739)”, for which the binding entry in experiment [3] is recorded as “binds”.

On to “embryonic ectoderm development protein (EED) (from UniProt O75530 1-441)”, for which the binding entry in experiment [3] is reported as “binds”.
